The values that follow come from PubChem BioAssay AID2685 (National Center for Advancing Translational Sciences (NCATS), 2010).

Some of the results follow. These are further read-outs of the screen, such as a control signal, another cell line or another target. No call is given for them. Most of these compounds were active or inconclusive in the main read-out, so they are no random draw. The note in brackets gives the kind of curve behind each potency; many fits are weak.

The nature of the experiment: qHTS Assay for Lipid Storage Modulators in Drosophila S3 Cells.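 As to cell number change: cells counted by Cell Tracker Red CMTPX staining in the red channel.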 Particulars: BODIPY lipid droplet fluorescence, 18-24 h; for cell number change: measured here: cell count max response, cells fed with added oleic acid. In short, it runs like this: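 Laser-scanning cytometry quantifies lipid droplet accumulation (500–530 nm total intensity; droplet/cell object ratio) in oleic acid-fed (400 uM added) Drosophila S3 cells treated with a concentration series. 20 uM Triacsin C defined 100% inhibition.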
(Quantitative high-throughput screening tests each substance at several concentrations.)

Setting [1] is: measured here: lipid fluorescence (Fed channel) AC50, cells fed with added oleic acid.
The mark [2] stands for this setting: measured here: cell number channel AC50, cells fed with added oleic acid.

Consider `O=C(NC1CCCC1)C(c1ccccn1)N(C(=O)c1csnn1)c1ccccc1F` (stereo not given), for which the cell number change came to 7.14%. In addition, the AC50 under setting [1] is 0.13 µM [rising, partial curve, poor fit].
On to `COc1ccc(NC(=O)Cn2cnc3sc(C)c(S(=O)(=O)N4CCN(C)CC4)c3c2=O)cc1OC`, for which the cell number change was found to be 4.59%. For the same compound, the AC50 under setting [2] is 4.11 µM [falling, single point]. Also, under setting [1], the AC50 is 4.61 µM [falling, single point].
As for `Cc1ccc(OCc2ccc(C(=O)NCc3cccnc3)cc2)cc1C`, the cell number change is -1.84%. In addition, the AC50 under setting [1] was 29.1 µM [rising, single point].
With `COc1ccc(C(=O)n2cc(C(=O)c3cc(C)ccc3O)cn2)cc1`, the cell number change amounted to 32.9%. Also, the AC50 under setting [2] was 23.1 µM [rising, single point].
Take `COc1cc(NC(=O)c2c(F)cccc2F)c(Cl)cc1Cl`: the cell number change was -6.15%. In addition, the AC50 under setting [2] is 5.8 µM [rising, single point].
As to `O=C(N/N=C/c1ccccn1)c1ccc(Cl)cc1`, the AC50 under setting [2] is 0.58 µM [rising, single point].
Take `COc1ccccc1CN1CC(C(=O)NCc2nccn2C)CCC1=O` (stereo not given): the cell number change was 43.6%. Besides, the AC50 under setting [2] is 0.082 µM [rising, full curve, poor fit].
As to `CC(=O)Nc1ccc(NC(=O)c2c(C)nc3ccccn23)cc1`, the cell number change worked out at 0.163%. In addition, the AC50 under setting [1] was 3.26 µM [falling, single point].
In the case of `ClCC1CSC(=NC23CC4CC(CC(C4)C2)C3)O1` (stereo not given), the cell number change was -11.6%. Besides, the AC50 under setting [1] is 5.8 µM [falling, partial curve].
On to `CCN(CCNC(=O)CN1CCN(Cc2ccc(Cl)cc2)C1=O)c1ccccc1`, for which the cell number change is -8.7%. Further, the concentration at half-maximal activity (AC50) under setting [1] was 29.1 µM [rising, single point].
On to `CS(=O)(=O)N(CC(=O)NCCC1=CCCCC1)c1cccc([N+](=O)[O-])c1`, for which the cell number change was -11.1%. In addition, the AC50 under setting [1] was 32.6 µM [falling, single point].
With `O=C(O)C1CSC(CCc2ccccc2)N1` (stereo not given), the cell number change is 3.97%. The AC50 under setting [1] is 29.1 µM [rising, single point].
As to `COc1cccc(CNC(=O)C2CCN(S(=O)(=O)c3ccc4c(c3)OCCO4)CC2)c1`, the cell number change came to 25.8%. For the same compound, the AC50 under setting [1] was 32.6 µM [rising, single point].
For `CCOc1ccc(N2C(=O)CN(c3cccc4ccccc34)C2=S)cc1`, the cell number change is -51.5%. For the same compound, under setting [2], the AC50 is 32.6 µM [falling, single point]. Moreover, the AC50 under setting [1] was 1.46 µM [falling, partial curve].
With `O=C(/C=C/c1ccc(OCCCF)cc1)Nc1ccnc(-c2cccnc2)n1`, the cell number change turned out to be 11.7%. For the same compound, the AC50 under setting [2] is 3.66 µM [rising, partial curve, poor fit]. Besides, the AC50 under setting [1] is 0.259 µM [rising, full curve].
As for `CC1CCCCN1Cc1c(C#N)c2ccccc2n1C` (stereo not given), the cell number change turned out to be 0.853%. Also, the AC50 under setting [1] is 0.731 µM [falling, single point].
In the case of `Cc1cc(C(F)(F)F)n2nc(C(=O)O)c(Cl)c2n1`, the cell number change was -3.49%. In addition, the AC50 under setting [1] was 29.1 µM [falling, single point].
Regarding `Nc1nonc1-n1nnc(C(=O)N/N=C/c2ccccc2Cl)c1CN1CCOCC1`, the cell number change was -14.9%. Also, the AC50 under setting [1] was 4.61 µM [rising, single point].
For the compound `Cc1c(Cl)cnc(NC(=O)CSc2n[nH]c(N)n2)c1Cl`, the cell number change worked out at 27.8%. The AC50 under setting [1] is 0.92 µM [falling, full curve, poor fit].
With `O=C(Cc1cccs1)Nc1nnc(-c2ccncc2)s1`, the cell number change is -4.23%.
Turning to `Cc1c2cnn(CC(=O)O)c(=O)c2c(C)n1Cc1ccccc1`, the cell number change came out at 33.5%. Further, under setting [1], the AC50 is 4.61 µM [falling, full curve, poor fit].
Take `COc1ccc(NS(=O)(=O)c2cccc(NC(=O)c3ccccn3)c2)cc1`: the cell number change was -40.3%. For the same compound, under setting [2], the AC50 was 18.4 µM [falling, single point]. Also, under setting [1], the AC50 was 25.9 µM [falling, single point].
With `COc1ccc(NC(=O)/C(C#N)=C/c2ccc(-c3ccccc3C(=O)O)o2)cc1`, the cell number change came to 25.7%. Further, the AC50 under setting [1] was 18.4 µM [rising, single point].
`COc1cc(/C=C/c2cc(C(F)(F)F)[nH]c(=O)n2)cc(OC)c1OC`: the cell number change is -29.4%. The AC50 under setting [1] is 23.1 µM [falling, single point].
Take `CCc1cc2c(cc(C(=O)O)n2C)s1`: the cell number change was -91.5%. Also, the AC50 under setting [2] is 23.1 µM [falling, partial curve]. For the same compound, the AC50 under setting [1] is 23.1 µM [falling, partial curve].
Consider `CN(C)/C=C/C(=O)c1ccc(Br)s1`, for which the cell number change turned out to be 13.8%.
With `CN(C(=O)C(Cl)Cl)c1ccc(OC(=O)c2ccco2)cc1`, the cell number change was found to be 6.34%. Under setting [1], the AC50 is 29.1 µM [falling, single point].
Turning to `CCCCCn1c(CN2CCN(c3cccc(Cl)c3)CC2)nc2c1c(=O)[nH]c(=O)n2C`, the cell number change is -20.8%. The AC50 under setting [1] is 14.6 µM [rising, single point].
In the case of `CC1(C)Oc2ccc3ccc(=O)oc3c2/C(=C/NCCN/C=C2\C(=O)C(C)(C)Oc3ccc4ccc(=O)oc4c32)C1=O`, the AC50 under setting [2] was 0.0651 µM [rising, full curve, poor fit].
Turning to `CCOC(=O)C1C(C)N=C2SCC(=O)N2C1c1cccc(Br)c1` (stereo not given), the cell number change was 3.68%. The AC50 under setting [2] was 0.517 µM [rising, single point].
Turning to `CC(C)COP(=O)(OCC(C)C)C(Nc1ccccc1)c1ccc(F)cc1` (stereo not given), the cell number change was 31.5%. Besides, the AC50 under setting [2] was 29.1 µM [rising, single point]. Under setting [1], the AC50 is 23.1 µM [rising, single point].
As to `Cc1noc(/C=C/N(C)C)c1S(=O)(=O)N1CCC(C(=O)Nc2ccc(Cl)cc2)CC1`, the cell number change was found to be 38.6%. Further, under setting [2], the AC50 was 14.6 µM [rising, partial curve, poor fit]. Besides, the AC50 under setting [1] was 29.1 µM [rising, single point].
Turning to `CCCNC(=O)c1cc(-c2ccc(Br)cc2)on1`, under setting [1], the AC50 was 0.00411 µM [rising, full curve, poor fit].
Consider `CCC(NS(=O)(=O)c1c(C)[nH]c(=O)[nH]c1=O)C12CC3CC(CC(C3)C1)C2` (stereo not given), for which the cell number change was -16.2%. Further, under setting [1], the AC50 is 29.1 µM [falling, partial curve, poor fit].
Consider `CC(=O)Oc1ccc(C(=O)Nc2cccc(C(=O)Nc3ccccc3C(=O)O)c2)cc1`, for which the cell number change stood at 28.4%.
Turning to `Cc1ccc(C(=O)NCCc2nnc3ccc(SCC(=O)NCc4ccc(F)cc4)nn23)cc1`, under setting [2], the AC50 was 2.31 µM [falling, single point].
For the compound `CCc1ccccc1Nc1nc(N)nc(COC(=O)C2=COCCO2)n1`, the cell number change was 31.4%. For the same compound, the AC50 under setting [2] was 23.1 µM [rising, partial curve]. Also, the AC50 under setting [1] was 18.4 µM [rising, partial curve].

One may read the AC50 as the concentration at which the activity in the assay is half-maximal. Higher therefore signals activity only at high concentration.
